PubChem BioAssay AID686937 – Drosophila RNAi Screening Center – 2013

Assay: 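Genes in the fly needed for secretion of protein constitutively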 (primary screen)
Cells: Drosophila S2 cells expressing secreted horseradish peroxidase
Reagents: long dsRNA against Drosophila genes
Time to read-out: about 5.5 days (5 days dsRNA, then 12 h reporter induction)
Conditions: reporter expression induced after 5 days of dsRNA, read 12 h later; inducer not stated
Read-out: 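Chemiluminescent measurement of peroxidase in the medium 12 h after reporter induction, following 5 days of dsRNA, given as a z-score per plate; higher means more secretion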
Scale: z-score: higher = more reporter secreted into medium
The deposit covers about 23,000 reagents; shown is an unselected part of those that have a named target and a result. 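Reduced-secretion tags in replicate 1 do not always agree with the z-scores; no criterion for assigning the tags was given.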 Names joined by + are all predicted targets of the reagent. Further read-outs or replicates are left out here. The record does not give: the amount of reagent.

z-score, replicate 1, by target gene and reagent
CG11231 (retired record): DRSC17207 0.5
AttA (Attacin-A): DRSC05926 0.42
CG9981: DRSC20225 0.22
Poxm (Pox meso): DRSC16793 0.54; DRSC22839 0.21
RASSF8 (Ras association domain family member 8): DRSC15707 0.07
CG11369: DRSC17779 0.31
CG31274 + MESK4: DRSC13202 0.2
CG13042: DRSC09923 0.18
CG32536 + CG32537: DRSC20074 -0.63
Ilp4 (Insulin-like peptide 4): DRSC10701 0.32
CG14624: DRSC18634 0.32
CG15387: DRSC00401 -0.07
kcc (kazachoc): DRSC04316 0.24; DRSC04516 0.31
CG14418: DRSC18637 0.01
CG9641: DRSC00721 0.24
CG6733: DRSC16103 0.42
CG12111: DRSC17808 0.27
PIG-K (Phosphatidylinositol glycan anchor biosynthesis class K): DRSC18496 0.49
lncRNA:CR34047 (long non-coding RNA:CR34047): DRSC07857 0.07; DRSC21689 0.16
CG18568: DRSC06768 0.56
Coq5 (Coenzyme Q5): DRSC19849 -3.14; DRSC21371 1.91
frma (fra mauro): DRSC18297 0.36
Tmem43 (Transmembrane protein 43): DRSC10964 0.13
Rph (Rabphilin): DRSC17790 0.5
lncRNA:CR31044 (long non-coding RNA::CR31044): DRSC22451 -0.31
cpb (capping protein beta): DRSC00809 -0.28
CG12869: DRSC06208 -0.01
ATPsynepsilonL (ATP synthase, epsilon subunit-like): DRSC14548 0.09
Ir62a (Ionotropic receptor 62a): DRSC08250 0.34
CG15408: DRSC00423 0.13
CG6628: DRSC10679 0.37
CG13896: DRSC08366 0.31
CG9784: DRSC20210 0.23
CG4927: DRSC06903 0.29
CG34459: DRSC06973 0.06
DMAP1 (DNA methyltransferase 1 associated protein 1): DRSC06044 0.37
CG9698: DRSC16539 0.4
CG1504: DRSC20513 -0.31
CG17121: DRSC15176 0.31
wisp (wispy): DRSC19703 0.39
fd96Ca (forkhead domain 96Ca): DRSC16946 0.32
CG2698: DRSC15447 0.25
eIF4E5 (eukaryotic translation initiation factor 4E5): DRSC10975 0.49
CG5390: DRSC02855 -0.28
Marf1 (Meiosis regulator and mRNA stability factor 1): DRSC03747 -0.03; DRSC03774 -0.26
CG32024: DRSC21883 0.39
Acp29AB (Accessory gland protein 29AB): DRSC01857 0.04
tub (tube): DRSC12389 -0.77; DRSC22800 -0.2
CG6931: DRSC10750 0.21
CR10991 (pseudo): DRSC12156 0.18
CG31909: DRSC22180 0.16
CG8924: DRSC20122 -0.02
SpdS (Spermidine Synthase): DRSC16408 0.41
hgo (homogentisate 1,2-dioxygenase): DRSC03544 0.14
CG17242: DRSC00493 0.28
Shrm (Shroom): DRSC06437 -0.02; DRSC06438 0.15; DRSC07221 0.48
Eph (Eph receptor tyrosine kinase): DRSC17164 0.58
CngB (Cyclic nucleotide-gated ion channel subunit B): DRSC04297 0.46
Vha16-3 (Vacuolar H[+] ATPase 16kD subunit 3): DRSC10872 0.55
cmpy (crimpy): DRSC11701 0.21
Vha16-1 (Vacuolar H[+] ATPase 16kD subunit 1): DRSC05020 -1.72
Xe7: DRSC12307 0.47
Arv1 (ACAT-related protein required for viability 1): DRSC11491 0.31
Ndfip (Nedd4 family interacting protein): DRSC11201 0.33
Rrp4: DRSC04434 0.14
CG3708: DRSC18646 0.51
Bka (Bekka): DRSC02757 0.19
Cda9 (Chitin deacetylase-like 9): DRSC06593 -0.07
CG31266: DRSC15747 -0.68
mbt (mushroom bodies tiny): DRSC20348 -1.28
CG1542: DRSC15035 -0.65
CG10631: DRSC02081 0.04
BubR1 (Bub1-related kinase): DRSC04838 -0.44
spdo (sanpodo): DRSC13988 0.41
